PubChem BioAssay AID1259425 – University of Nebraska Medical Center | 2018
Here is a random part of about 14,000 deposited reagents. Reagents against one gene are numbered here. Not stated in the record: the time to read-out.

Purpose: 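Compare each knockdown with KSR1 silencing using changes in marker transcripts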 (primary screen)
System: HCT116 human colon cancer cells
Knock-down reagent: siRNA pool against human genes, 50 nM siRNA
Read-out: 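After 50 nM siRNA pool, branched-DNA assay measures six marker transcripts per well, minus blank, normalised to the geometric mean of two housekeeping transcripts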
Direction: BNIP3L mRNA: higher = more BNIP3L transcript after knockdown; NDRG1 mRNA: higher = more NDRG1 transcript after knockdown; BNIP3 mRNA: higher = more BNIP3 transcript after knockdown; ALDOC mRNA: higher = more ALDOC transcript after knockdown; ACSL5 mRNA: higher = more ACSL5 transcript after knockdown

gene knocked down | reagent no. | BNIP3L mRNA, set 1 | NDRG1 mRNA, set 1 | BNIP3 mRNA, set 1 | ALDOC mRNA, set 1 | ACSL5 mRNA, set 1
KIAA0586 (GeneID 9786) | 1 | 0.0874 | 0.325 | 0.328 | 0.054 | 0.236
BAG6 (GeneID 7917) | 1 | 0.164 | 0.209 | 0.232 | 0.0302 | 0.232
CSF1R (GeneID 1436) | 1 | 0.179 | 0.168 | 0.199 | 0.0298 | 0.219
PRKACG (GeneID 5568) | 1 | 0.0766 | 0.495 | 0.335 | 0.00813 | 0.209
VPS13D (GeneID 55187) | 1 | 0.0748 | 0.256 | 0.255 | 0.0255 | 0.128
TCF7 (GeneID 6932) | 1 | 0.103 | 0.167 | 0.254 | 0.00254 | 0.104
TTC9 (GeneID 23508) | 1 | 0.0681 | 0.602 | 0.56 | 0.011 | 0.122
ISCU (GeneID 23479) | 1 | 0.167 | 1.87 | 0.632 | 0.0538 | 0.513
PARK7 (GeneID 11315) | 1 | 0.273 | 0.33 | 0.501 | 0.0855 | 0.232
CLSPN (GeneID 63967) | 1 | 0.125 | 0.299 | 0.437 | 0.00906 | 0.159
PKIG (GeneID 11142) | 1 | 0.0526 | 0.106 | 0.217 | 0.0135 | 0.104
NPY2R (GeneID 4887) | 1 | 0.204 | 0.269 | 0.245 | 0.0421 | 0.117
CCHCR1 (GeneID 54535) | 1 | 0.133 | 0.764 | 0.327 | 0.0266 | 0.108
LMNB2 (GeneID 84823) | 1 | 0.113 | 0.127 | 0.369 | 0.0192 | 0.137
RNF17 (GeneID 56163) | 1 | 0.0594 | 0.125 | 0.259 | 0.0289 | 0.0864
RNF17 (GeneID 56163) | 2 | 0.0785 | 0.0939 | 0.224 | 0.0255 | 0.175
UNK (GeneID 85451) | 1 | 0.1 | 0.487 | 0.34 | 0.0165 | 0.137
RPS13 (GeneID 6207) | 1 | 0.0287 | 0.155 | 0.381 | 0.00378 | 0.0906
MYH1 (GeneID 4619) | 1 | 0.14 | 0.195 | 0.294 | 0.0162 | 0.147
RGPD5 (GeneID 84220) | 1 | 0.109 | 0.0199 | 0.225 | 0.0131 | 0.105
TNFRSF10D (GeneID 8793) | 1 | 0.0608 | 0.0494 | 0.362 | 0.0187 | 0.221
POLR2E (GeneID 5434) | 1 | 0.0677 | 0.776 | 0.622 | 0.0445 | 0.203
ADORA1 (GeneID 134) | 1 | 0.211 | 0.252 | 0.586 | 0.0326 | 0.266
CCM2 (GeneID 83605) | 1 | 0.0757 | 0.193 | 0.406 | 0.0433 | 0.323
BCL2L13 (GeneID 23786) | 1 | 0.0789 | 0.0714 | 0.253 | 0.0208 | 0.0709
DMAC2 (GeneID 55101) | 1 | 0.207 | 0.415 | 0.407 | 0.00534 | 0.26
CDC16 (GeneID 8881) | 1 | 0.196 | 0.222 | 0.296 | 0.0159 | 0.178
VPS13C (GeneID 54832) | 1 | 0.0789 | 0.0785 | 0.242 | 0.0114 | 0.167
PCSK1 (GeneID 5122) | 1 | 0.217 | 0.414 | 0.359 | 0.0464 | 0.1
ALCAM (GeneID 214) | 1 | 0.0373 | 0.216 | 0.276 | 0.0289 | 0.207
FABP2 (GeneID 2169) | 1 | 0.0867 | 0.201 | 0.222 | 0.0187 | 0.12
H3C6 (GeneID 8353) | 1 | 0.079 | 0.0941 | 0.311 | 0.0136 | 0.098

Entries listed so far whose target name begins with C or c:
gene knocked down | reagent no. | BNIP3L mRNA, set 1 | NDRG1 mRNA, set 1 | BNIP3 mRNA, set 1 | ALDOC mRNA, set 1 | ACSL5 mRNA, set 1
CSF1R (GeneID 1436) | 1 | 0.179 | 0.168 | 0.199 | 0.0298 | 0.219
CLSPN (GeneID 63967) | 1 | 0.125 | 0.299 | 0.437 | 0.00906 | 0.159
CCHCR1 (GeneID 54535) | 1 | 0.133 | 0.764 | 0.327 | 0.0266 | 0.108
CCM2 (GeneID 83605) | 1 | 0.0757 | 0.193 | 0.406 | 0.0433 | 0.323
CDC16 (GeneID 8881) | 1 | 0.196 | 0.222 | 0.296 | 0.0159 | 0.178

Further results:
gene knocked down | reagent no. | BNIP3L mRNA, set 1 | NDRG1 mRNA, set 1 | BNIP3 mRNA, set 1 | ALDOC mRNA, set 1 | ACSL5 mRNA, set 1
ITGA11 (GeneID 22801) | 1 | 0.176 | 0.0729 | 0.351 | 0.0311 | 0.114
RHOF (GeneID 54509) | 1 | 0.0859 | 0.385 | 0.32 | 0.0141 | 0.124
AKNA (GeneID 80709) | 1 | 0.081 | 0.257 | 0.294 | 0.0213 | 0.171
MED23 (GeneID 9439) | 1 | 0.142 | 0.137 | 0.26 | 0.0154 | 0.109
SDAD1 (GeneID 55153) | 1 | 0.134 | 0.52 | 0.374 | 0.0206 | 0.236
POM121 (GeneID 9883) | 1 | 0.105 | 0.12 | 0.335 | 0.0292 | 0.176
ATP8B2 (GeneID 57198) | 1 | 0.182 | 0.422 | 0.35 | 0.0624 | 0.28
CDYL (GeneID 9425) | 1 | 0.0935 | 0.426 | 0.534 | 0.0568 | 0.152
OPCML (GeneID 4978) | 1 | 0.122 | 0.153 | 0.278 | 0.0132 | 0.102
ELOB (GeneID 6923) | 1 | 0.579 | 1.39 | 4.44 | 0.145 | 0.278
PPFIA4 (GeneID 8497) | 1 | 0.0965 | 0.163 | 0.335 | 0.0214 | 0.113
MRPL43 (GeneID 84545) | 1 | 0.214 | 0.186 | 0.162 | 0.0342 | 0.0955
HSPH1 (GeneID 10808) | 1 | 0.158 | 0.0905 | 0.25 | 0.009 | 0.188
RLIM (GeneID 51132) | 1 | 0.138 | 0.146 | 0.295 | 0.01 | 0.152
VRK2 (GeneID 7444) | 1 | 0.059 | 0.0514 | 0.208 | 0.0205 | 0.169
NFATC2 (GeneID 4773) | 1 | 0.103 | 0.0533 | 0.363 | 0.00869 | 0.145
ERCC6 (GeneID 2074) | 1 | 0.209 | 0.148 | 0.22 | 0.0469 | 0.209
KRT34 (GeneID 3885) | 1 | 0.0977 | 0.0769 | 0.313 | 0.0529 | 0.0684
SEC24D (GeneID 9871) | 1 | 0.0862 | 0.192 | 0.32 | 0.0156 | 0.195
PDE4DIP (GeneID 9659) | 1 | 0.135 | 0.209 | 0.327 | 0.0288 | 0.297
STK31 (GeneID 56164) | 1 | 0.0667 | 0.446 | 0.213 | 0.0116 | 0.216
SAE1 (GeneID 10055) | 1 | 0.117 | 0.122 | 0.592 | 0.034 | 0.102
PTGER1 (GeneID 5731) | 1 | 0.259 | 0.214 | 0.581 | 0.046 | 0.214
BICD2 (GeneID 23299) | 1 | 0.114 | 0.409 | 0.265 | 0.0321 | 0.204
GPR63 (GeneID 81491) | 1 | 0.245 | 0.175 | 0.356 | 0.124 | 0.276
ELOA2 (GeneID 51224) | 1 | 0.0955 | 0.214 | 0.381 | 0.0645 | 0.0991
ABCA8 (GeneID 10351) | 1 | 0.225 | 0.797 | 0.466 | 0.0313 | 0.139
KPNA5 (GeneID 3841) | 1 | 0.0697 | 0.164 | 0.343 | 0.0158 | 0.224
TRMT112 (GeneID 51504) | 1 | 0.0756 | 0.253 | 0.267 | 0.0288 | 0.246
MARCHF4 (GeneID 57574) | 1 | 0.14 | 0.317 | 0.37 | 0.0355 | 0.141
IGF2BP1 (GeneID 10642) | 1 | 0.136 | 0.061 | 0.384 | 0.00794 | 0.0672
